Laboratory results reported in US20230099822A1, “MR1 LIGANDS AND PHARMACEUTICAL COMPOSITIONS FOR IMMUNOMODULATION” (UNIVERSITÄT BASEL, priority 2020, published 2023).
At least one compound was matched to its structure with a doubt left.

The chains behind the UniProt entries cited, without tags or fusion partners. Residues count along the entry.
UniProt Q95460, 23-341: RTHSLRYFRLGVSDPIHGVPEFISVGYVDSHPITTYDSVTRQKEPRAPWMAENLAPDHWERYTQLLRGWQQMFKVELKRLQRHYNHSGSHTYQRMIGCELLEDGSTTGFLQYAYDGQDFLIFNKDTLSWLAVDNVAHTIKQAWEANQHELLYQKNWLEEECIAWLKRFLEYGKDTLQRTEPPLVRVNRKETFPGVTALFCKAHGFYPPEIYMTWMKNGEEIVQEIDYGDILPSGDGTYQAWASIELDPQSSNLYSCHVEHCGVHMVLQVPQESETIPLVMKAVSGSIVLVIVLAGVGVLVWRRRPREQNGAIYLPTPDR

Experiments:
MR1T cell clones [1] = test: Competition assay for stimulation of MR1T cell clones; format: cell-based, human; settings: APCs with compound 2 h (3 doses), then antigen at optimal concentration, cytokine ELISA
Experimental: As positive control for competition with antigens, Ac-6-FP was used (100 μM). Supernatants were collected after 24 h for cytokine analysis measured by ELISA.

[2] = target: T1, MR1 surface expression on THP-1 MR1 cells (Homo sapiens, UniProt Q95460); test: Cell surface MR1 modulation on APCs (flow cytometry, anti-MR1 mAb 26.5); format: cell-based; settings: 3 h at 37° C., 3 doses each
T1 construct: expressed in transfected cells; host or cells: THP-1 (ATCC TIB-202) stably expressing MR1 (THP1-MR1)
Experimental: […] […] For each condition, net MFI was calculated subtracting isotype MFI from anti-MR1 MFI and fold change of cells treated with synthetic molecules over cells treated with vehicle was calculated.

MR1T cell clones [3] = test: MR1T cell activation assay with THP-1 cells incubated with compounds (cytokine ELISA); format: cell-based, human
Experimental: MR1T cells (5×10^4/well unless otherwise indicated) were co-cultured with the indicated APCs (10^5 cells per well unless otherwise indicated) for 18 h in 120 μL volume in triplicate.
When nucleobases, nucleosides or nucleotides (all 250 μM) and synthetic compounds M3ADE, OPdA, M1G or OPdC were used to stimulate T cells, the THP-1 cells (10^5/well) were cultured 2 h with the indicated molecules or medium only, prior to T-cell addition. When a single concentration of synthetic antigens was used, 100 μM OPdA, 100 μM OPdC and 13 μM M1G were used for all clones, while 100 μM M3ADE was used for all clones except DGB129, AC1A4, AC1B76 and AVA46 for which 1 μM was used.

MR1T cell clones [4] = test: MR1T cell activation assay with drug-treated THP-1 cells; format: cell-based, human
Experimental: MR1T cells (5×10^4/well unless otherwise indicated) were co-cultured with the indicated APCs (10^5 cells per well unless otherwise indicated) for 18 h in 120 μL volume in triplicate. In some experiments, anti-MR1 mAbs (clone 26.5, purified and endotoxin-free mouse IgG2a, (Lepore et al., 2014)) or mouse IgG2a isotype control mAbs (LEAF, Biolegend, Cat #401504) (both at 30 μg/mL) were added and incubated for 30 min at 37° C. prior to the addition of T cells.
In experiments with mycophenolic acid (10 μM), EHNA (25 μM), S-p-bromobenzylglutathione cyclopentyl diester (BBG, 20 μM) (all from Sigma-Aldrich), THP-1 cells (1×10^6/mL) were treated with the indicated concentrations of drugs in complete medium at 37° C. for 18 h before being washed twice with PBS, counted and used for T-cell activation. In experiments where THP-1 cells (1×10^6/mL) were treated with doxorubicin (75 nM) and paclitaxel (5 μM) (both from Sigma-Aldrich), the cells were incubated at 37° C. for 18 h before being washed twice with PBS, counted, and incubated for 2 h with vehicle or 150 μM dAdo and 150 μM guanosine (Sigma-Aldrich) prior to T-cell addition. In experiments where fixed A375-MR1 cells were used to activate MR1T cells, APCs (4×10^5/mL) were treated with apocynin (APO, 100 μM), L-glutathione reduced (GSH, 4 mM), N-acetyl cysteine (NAC, 4 mM), L-buthionine-sulfoximine (BSO, 400 μM) mercaptosuccinic acid (MSA, 3.3 μM), ML-210 (6 μM) or 1S,3R-RSL3 (RSL3, 1 μM), hydralazine hydrochloride (100 μM) or aminoguanidine hemisulfate salt (5 mM) for 18 h at 37° C. before being washed twice with PBS, fixed with glutaraldehyde, counted and used for MR1T cell stimulation.
The following human cytokines were assessed by ELISA using specific mAbs: GM-CSF (purified clone BVD2-23B6 and biotinylated clone BVD2-21C11, Biolegend Cat #502202 and 502304, respectively), IFN-γ (purified clone MD-1 and biotinylated clone 4S.B3, Biolegend Cat #507502 and 502504, respectively), IL-13 (purified clone JES10-5A2 and biotinylated clone SB126d, SouthernBiotech Cat #10125-01 and 15930-08, respectively).

SMILES	Competition (MR1T cell clones [1])	MRI downmodulation [2]	MRI upregulation [2]	Reactive T cells isolated (MR1T cell clones [3])	stimulation of MCA2B1 MR1T clone (IFN-γ) (MR1T cell clones [4]; THP-1 18 h with drug, exogenous deoxycytidine co-administered (FIG. 7c))	response of MCA2B9 MR1T clone (IFN-γ) (MR1T cell clones [4]; THP-1 cells incubated 18 h with drug (FIG. 7a, b))	T cell response in MR1T cell clones (MR1T cell clones [4]; THP-1 cells treated with drug)
Nc1nc2c(ncn2[C@@H]2O[C@H](CO)[C@@H](O)[C@H]2OC2O[C@H](CO)[C@@H](O)[C@H]2O)c(=O)[nH]1 (stereo partly shown) [Cmpd 20, 2′-O-ribosylguanosine]	YES	NO	YES	YES	–	–	–
CC1(O)Nc2nc3c(ncn3[C@@H]3O[C@H](CO)[C@@H](O)[C@H]3O)c(=O)n2C1O (stereo partly drawn) [Cmpd 21, 3-((2R,3R,4S,5R)-3,4-dihydroxy-5-(hydroxymethyl)tetrahydrofuran-2-yl)-6,7-dihydroxy-6-methyl-6,7-dihydro-3H-imidazo[1,2-a]purin-9(5H)-one]	–	NO	NO	YES	–	–	–
CC1(O)C(O)Nc2nc3c(ncn3[C@@H]3O[C@H](CO)[C@@H](O)[C@H]3O)c(=O)n21 (stereo partly drawn) [Cmpd 22, 3-((2R,3R,4S,5R)-3,4-dihydroxy-5-(hydroxymethyl)tetrahydrofuran-2-yl)-6,7-dihydroxy-7-methyl-6,7-dihydro-3H-imidazo[1,2-a]purin-9(5H)-one]	–	NO	NO	YES	–	–	–
COC(=O)NC(C(=O)OC)C(O)Cc1c(C)nc2n(C)c3c(ncn3[C@@H]3O[C@H](CO)C(O)C3O)c(=O)n12 (stereo partly shown) [Cmpd 35, Hydroxywybutosine]	YES	NO	YES	–	–	–	–
CCN(CC)C(=S)SSC(=S)N(CC)CC [Disulfiram]	–	–	–	–	induces the stimulation	increase the response	induced a strong T cell response
